Strings that start with PEPTIDE1 are HELM notation: dots part the residues, brackets hold end groups and non-standard residues.
Assay: general procedure: Boc solid-phase peptide synthesis
Conditions: whole synthesis, no impurities detected at the 1% level

Substance: PEPTIDE1{[IVA].H.P.F.H.[Sta].L.F.[am]}$$$$V2.0
- final purity (method not given) (HPLC): greater than 99% pure
- final HPLC purity: Greater than 99% single peak
